Assay results reported in publication PMC6317813.
Results are given in words; binding and its absence hold for the method and conditions named. Binding seen in cells or lysates may run through a third protein. Some binding calls cover weakened binding; strength is not graded here.

Amino acid sequences for entries named in this document (tags omitted). A change or cut given only in a name is not applied to a line headed by its entry. Chains listed by the source or under a name are the forms on record and can include a tag or linker.
UniProt P37238: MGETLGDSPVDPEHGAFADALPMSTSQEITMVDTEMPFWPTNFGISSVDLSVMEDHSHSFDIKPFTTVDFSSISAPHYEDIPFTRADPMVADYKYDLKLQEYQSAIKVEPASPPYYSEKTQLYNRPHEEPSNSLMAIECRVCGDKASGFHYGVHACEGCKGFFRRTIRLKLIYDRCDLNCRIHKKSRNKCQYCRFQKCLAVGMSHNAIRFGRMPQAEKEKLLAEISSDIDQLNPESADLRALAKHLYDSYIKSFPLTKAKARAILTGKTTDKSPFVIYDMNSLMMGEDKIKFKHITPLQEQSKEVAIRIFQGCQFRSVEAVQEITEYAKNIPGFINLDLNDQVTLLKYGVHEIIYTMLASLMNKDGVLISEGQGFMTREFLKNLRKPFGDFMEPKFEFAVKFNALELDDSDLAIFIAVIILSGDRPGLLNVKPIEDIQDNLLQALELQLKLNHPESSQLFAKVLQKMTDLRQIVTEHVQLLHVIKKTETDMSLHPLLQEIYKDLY
Myc-tagged Smurf1 (Q9HCE7-2, form named): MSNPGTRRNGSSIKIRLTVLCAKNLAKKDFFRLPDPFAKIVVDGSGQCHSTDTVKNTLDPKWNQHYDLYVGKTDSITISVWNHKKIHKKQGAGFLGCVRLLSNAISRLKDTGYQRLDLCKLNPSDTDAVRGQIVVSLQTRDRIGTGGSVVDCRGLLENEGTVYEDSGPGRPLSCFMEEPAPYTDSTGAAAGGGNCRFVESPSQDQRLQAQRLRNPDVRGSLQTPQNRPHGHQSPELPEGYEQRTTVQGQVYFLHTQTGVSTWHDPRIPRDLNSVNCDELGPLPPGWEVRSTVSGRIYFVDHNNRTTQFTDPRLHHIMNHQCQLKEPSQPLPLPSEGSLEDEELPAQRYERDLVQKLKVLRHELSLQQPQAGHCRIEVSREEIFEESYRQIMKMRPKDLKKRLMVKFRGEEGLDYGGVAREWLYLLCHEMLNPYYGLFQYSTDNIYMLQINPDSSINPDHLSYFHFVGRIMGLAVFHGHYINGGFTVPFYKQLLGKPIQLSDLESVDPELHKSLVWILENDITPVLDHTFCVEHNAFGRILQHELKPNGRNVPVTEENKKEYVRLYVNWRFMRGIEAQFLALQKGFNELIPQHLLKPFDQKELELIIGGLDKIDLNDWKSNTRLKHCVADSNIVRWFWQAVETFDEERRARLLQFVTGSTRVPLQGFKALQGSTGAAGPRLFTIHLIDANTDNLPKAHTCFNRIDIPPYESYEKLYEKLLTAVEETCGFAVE
UniProt Q9CUN6: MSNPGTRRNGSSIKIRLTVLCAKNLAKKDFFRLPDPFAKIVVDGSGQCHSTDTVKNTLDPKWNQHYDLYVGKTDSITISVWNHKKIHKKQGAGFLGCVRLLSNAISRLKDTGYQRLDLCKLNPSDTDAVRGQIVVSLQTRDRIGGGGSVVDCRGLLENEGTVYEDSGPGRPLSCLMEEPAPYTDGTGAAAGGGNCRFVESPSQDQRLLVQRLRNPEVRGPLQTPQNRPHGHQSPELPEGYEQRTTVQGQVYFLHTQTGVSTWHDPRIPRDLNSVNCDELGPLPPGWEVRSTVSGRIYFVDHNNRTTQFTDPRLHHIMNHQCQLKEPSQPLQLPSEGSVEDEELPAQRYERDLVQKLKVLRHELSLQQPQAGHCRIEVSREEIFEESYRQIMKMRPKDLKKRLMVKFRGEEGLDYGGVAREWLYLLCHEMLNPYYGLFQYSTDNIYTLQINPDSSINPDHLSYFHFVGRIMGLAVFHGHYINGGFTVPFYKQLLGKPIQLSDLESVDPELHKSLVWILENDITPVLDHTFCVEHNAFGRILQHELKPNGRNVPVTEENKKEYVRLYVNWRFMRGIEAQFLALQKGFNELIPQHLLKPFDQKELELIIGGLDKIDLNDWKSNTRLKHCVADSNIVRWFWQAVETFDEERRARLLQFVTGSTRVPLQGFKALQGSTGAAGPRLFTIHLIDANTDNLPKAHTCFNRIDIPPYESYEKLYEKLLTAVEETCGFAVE

Key:
[1] = target: Flag-tagged PPARγ2 (UniProt P37238); test: co-IP; AML12 cells transiently transfected with Myc-Smurf1 and Flag-PPARγ2 or its ΔPY mutant; whole cell lysates immunoprecipitated with Flag-M2 beads, western blot
[2] = target: peroxisome proliferator-activated receptor γ (PPARγ), endogenous in AML12 cells (mouse (endogenous in AML12)) (UniProt P37238); test: co-IP; endogenous Smurf1 and endogenous PPARγ in AML12 cells; western blot

Substance	binding [1]	binding [2]
Myc-tagged Smurf1 (from UniProt Q9HCE7-2 1-731) (enzyme)	binds	–
Smad ubiquitin regulatory factor 1 (Smurf1), endogenous in AML12 cells (from UniProt Q9CUN6 1-731) (enzyme)	–	binds
